± gives the standard deviation. This is a selection; strong and weak results do not stand in their true shares. Many entries were measured with a wide error. Some of the results follow.
Tests used:
[1] = test system: MILI (PIWIL2) piRISC loaded with L1MC piRNA (26 nt); assay: pre-steady-state target cleavage rate (min^-1); higher = faster piRNA-guided slicing of the target; conditions: guide: L1MC piRNA 5'p-UAACUAAAUACUAUGCAAGCUGUAGG; auxiliary factor: none (no GTSF1)
Summary of the method: (§1)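 A transcribed, DNA-blocked target RNA library (0.1 nM) and 1 nM active affinity-purified piRISC bearing one synthetic guide were incubated in HEPES–potassium acetate buffer at 33 °C for 0–8 or 0–960 min, either with or without 500 nM GTSF1 partner protein. Uncleaved targets were sequenced, normalised to depth and to weakly complementary targets, and pooled over three trials, with k3 capped at 0.0001 min^-1. The pre-steady-state cleavage rate was derived with a burst-and-steady-state fit.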

[2] = test system: MIWI (PIWIL1) piRISC loaded with L1MC piRNA (30 nt); assay: as above; conditions: guide: L1MC piRNA 5'p-UAACUAAAUACUAUGCAAGCUGUAGGUCCU; auxiliary factor: none (no GTSF1)
Summary of the method: as §1

[3] = test system: EfPiwi piRISC loaded with L1MC piRNA (26 nt); assay: pre-steady-state target cleavage rate (min^-1); guide: L1MC piRNA 5'p-UAACUAAAUACUAUGCAAGCUGUAGG; MIWI and MILI are mouse PIWI proteins and EfPiwi is from a freshwater sponge; tags in brackets are library labels; higher = faster piRNA-guided slicing of the target
Summary of the method: as §1

[4] = auxiliary factor: 500 nM Ephydatia muelleri Gtsf1
[5] = auxiliary factor: none (no Gtsf1)

Sequence: UCCUCCUACAGCUUGCAUAGUAUUAUGAAA
- pre-steady-state target cleavage rate [1]: 0.00121 ± 0.0059
- pre-steady-state target cleavage rate [2]: 0.00182 ± 0.0044
- pre-steady-state target cleavage rate [3, 4]: 0.00358 ± 0.0025
- pre-steady-state target cleavage rate [3, 5]: 0.000479 ± 0.011

Sequence: UCCUGGUACAGCUUGCAUCAGUAUUUAGUUA
- pre-steady-state target cleavage rate [1]: 0.00173 ± 0.0047
- pre-steady-state target cleavage rate [2]: 0.00173 ± 0.0059
- pre-steady-state target cleavage rate [3, 4]: 0.00147 ± 0.0039
- pre-steady-state target cleavage rate [3, 5]: 0.000707 ± 0.013

Sequence: UCCUGGAUGUCGUUCCAUAGUAUAUAGUUA
- pre-steady-state target cleavage rate [1]: 0.000166 ± 0.036
- pre-steady-state target cleavage rate [2]: 0.000466 ± 0.016
- pre-steady-state target cleavage rate [3, 4]: 0.000899 ± 0.0069
- pre-steady-state target cleavage rate [3, 5]: < 0.0001

Sequence: UCCUGGAUGUGCUUGCAUUCUAUUUAGAAA
- pre-steady-state target cleavage rate [1]: 0.000323 ± 0.017
- pre-steady-state target cleavage rate [2]: 0.000576 ± 0.01
- pre-steady-state target cleavage rate [3, 4]: 0.000361 ± 0.0088
- pre-steady-state target cleavage rate [3, 5]: 0.000227 ± 0.034

Sequence: UCCUGCUACAGCUUCGUUAGUAUUUUCAAA
- pre-steady-state target cleavage rate [1]: 0.000335 ± 0.013
- pre-steady-state target cleavage rate [2]: 0.000103 ± 0.032
- pre-steady-state target cleavage rate [3, 4]: 0.00013 ± 0.026
- pre-steady-state target cleavage rate [3, 5]: < 0.0001

Sequence: UCCUGGAACUGCUUGCAUAGUAUUUUCAAA
- pre-steady-state target cleavage rate [1]: 0.000827 ± 0.0061
- pre-steady-state target cleavage rate [2]: 0.00246 ± 0.0028
- pre-steady-state target cleavage rate [3, 4]: 0.00125 ± 0.0029
- pre-steady-state target cleavage rate [3, 5]: 0.000308 ± 0.016

Sequence: UCCUGGAUGUCCUAGGAUAGUAUUUAGUUA
- pre-steady-state target cleavage rate [1]: 0.00181 ± 0.0032
- pre-steady-state target cleavage rate [2]: 0.000716 ± 0.0083
- pre-steady-state target cleavage rate [3, 4]: 0.000327 ± 0.0072
- pre-steady-state target cleavage rate [3, 5]: 0.000101 ± 0.062

Sequence: UCCUGCUACACGUUGCAUAGUAUUUUCAAA
- pre-steady-state target cleavage rate [1]: 0.000689 ± 0.011
- pre-steady-state target cleavage rate [2]: 0.000593 ± 0.011
- pre-steady-state target cleavage rate [3, 4]: 0.000548 ± 0.0063
- pre-steady-state target cleavage rate [3, 5]: 0.000291 ± 0.025

Sequence: UCCUCCUACAGCUACCAUAGUAUUUAGAAA
- pre-steady-state target cleavage rate [1]: 0.000713 ± 0.0072
- pre-steady-state target cleavage rate [2]: 0.000677 ± 0.0076
- pre-steady-state target cleavage rate [3, 4]: 0.00162 ± 0.0024
- pre-steady-state target cleavage rate [3, 5]: 0.000208 ± 0.021

Sequence: UCCUGGAUGAGCUUGCAUAGAUAAAUCAAA [g11:g21:cont:t1A]
- pre-steady-state target cleavage rate [1]: 0.00035 ± 0.016
- pre-steady-state target cleavage rate [2]: 0.000202 ± 0.021
- pre-steady-state target cleavage rate [3, 4]: 0.000364 ± 0.0095
- pre-steady-state target cleavage rate [3, 5]: 0.000149 ± 0.046

Sequence: UCCUGGAUGUCCAUGCUUAGUAUUUAGUUA
- pre-steady-state target cleavage rate [1]: 0.00201 ± 0.0031
- pre-steady-state target cleavage rate [2]: 0.000767 ± 0.0074
- pre-steady-state target cleavage rate [3, 4]: 0.000381 ± 0.0085
- pre-steady-state target cleavage rate [3, 5]: 0.000161 ± 0.046

Sequence: UCCUCCUACAGCUUGCAUAGUAAAUAGUAA
- pre-steady-state target cleavage rate [1]: 0.00134 ± 0.0044
- pre-steady-state target cleavage rate [2]: 0.00194 ± 0.0042
- pre-steady-state target cleavage rate [3, 4]: 0.00375 ± 0.0025
- pre-steady-state target cleavage rate [3, 5]: 0.000353 ± 0.023

Sequence: UCCUGGAUGUCCAUGCAUACUAUUUAGUUA
- pre-steady-state target cleavage rate [1]: 0.0014 ± 0.0056
- pre-steady-state target cleavage rate [2]: 0.000797 ± 0.013
- pre-steady-state target cleavage rate [3, 4]: 0.000618 ± 0.0046
- pre-steady-state target cleavage rate [3, 5]: 0.000294 ± 0.023

Sequence: UCCUCCUACAGCAAGCAUAGUAUUUUCAAA
- pre-steady-state target cleavage rate [1]: 0.00137 ± 0.004
- pre-steady-state target cleavage rate [2]: 0.000945 ± 0.0075
- pre-steady-state target cleavage rate [3, 4]: 0.00103 ± 0.0079
- pre-steady-state target cleavage rate [3, 5]: 0.000294 ± 0.022

Sequence: UCCUCCUACAGCUUGCAUAGAUUUAGUUA
- pre-steady-state target cleavage rate [1]: 0.00147 ± 0.004
- pre-steady-state target cleavage rate [2]: 0.000381 ± 0.0089
- pre-steady-state target cleavage rate [3, 4]: 0.00442 ± 0.0029
- pre-steady-state target cleavage rate [3, 5]: 0.000586 ± 0.009

— the supplement of paper PMC10338343
